# PubChem BioAssay AID743448, Peter MacCallum Cancer Centre | 2014
# Purpose: 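Test whether knock-downs sensitising to vorinostat hold across several colon lines but not etoposide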 (follow-up of hits)
# Cells: four human colon cancer cell lines: HCT116-VR (vorinostat-resistant HCT116 derivative), SW480, SW620 and LIM1215
# Reagent: siRNA pool against human genes, 40 nM siRNA pool
# Duration: drug added two days after transfection, read one day later
# Conditions: vorinostat 2.5 µM on one half of each plate, etoposide 5 µM on the other half
# Cell line and drug panel: SW480 cells with etoposide
# Measured: 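Caspase luminescence and viability fluorescence, each expressed relative to mock transfection and also as robust z-scores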
# Scale: caspase ratio to mock: higher = more caspase activity than mock; viability ratio to mock: higher = more live cells than mock; caspase robust z-score: higher = more caspase activity, more apoptosis; viability robust z-score: higher = more live cells
# Hit rule: 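a row is a hit if caspase relative to mock is 1.6 or above or viability relative to mock is 0.75 or below; wells dying heavily without drug are not called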
# Meaning of the calls: active = caspase or viability hit in this panel; inactive = no change, or unhealthy well
# This is an unselected part of the 106 reagents, in one setting of the screen. 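Calls are per line and drug panel including etoposide, not vorinostat-specific; gene picks needed hits in two or more extra lines with vorinostat versus etoposide.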 A number with no mark means an inactive call.
gene,caspase ratio to mock,viability ratio to mock,caspase robust z-score,viability robust z-score
RNF186,0.63,1.11,-1.09,1.64
FLII,1.61 (active),1.09,-0.34,1.48
THAP3,1.92 (active),0.8,-0.1,-0.46
EIF3L,1.29,1,-0.59,0.9
MAGOH,1.12,0.86,-0.74,-0.03
RBM42,0.84,0.89,-0.93,0.1
BEGAIN,2.12 (active),1.08,0.06,1.39
SIN3A,1.9 (active),1.21,-0.14,2.25
LBHD1,1.82 (active),0.96,-0.18,0.62
MRPL19,1.54,0.89,-0.4,0.14
IQSEC1,4.45,0.79,1.87,-0.52
EIF2S1,1.54 (active),0.7,-0.38,-1.06
GPER1,2.6 (active),0.9,0.42,0.21
NUP62,3.1 (active),0.76,0.76,-0.74
TGM5,1.12,0.97,-0.7,0.66
MSANTD1,3.04 (active),0.64,0.74,-1.52
PLAG1,3.12,0.87,0.86,0.02
ANO9,1.62 (active),1.09,-0.34,1.46
EIF2B2,1.48 (active),0.65,-0.46,-1.49
OR2W5,1.63 (active),1.01,-0.32,0.98
SCRT2,1.96 (active),0.86,-0.08,-0.03
LRP3,1.31,0.76,-0.57,-0.76
SEMA4F,1.64 (active),0.96,-0.32,0.58
ZNF441,0.95,0.97,-0.84,0.6
NUP133,2.5 (active),0.84,0.34,-0.2
THOC5,2.12 (active),0.88,0.07,0.05
VPS4A,4.51,0.68,1.89,-1.25
C22orf15,2.05 (active),1.01,0.02,0.97
VAX1,1.9 (active),0.97,-0.12,0.69
DPPA5,1.58,0.84,-0.35,-0.18
TOX4,1.33,0.88,-0.54,0.12
MICALL2,3.73 (active),1.08,1.22,1.36
CCDC59,3.11 (active),0.83,0.8,-0.26
POLR2J,1.31,0.98,-0.56,0.68
PSMA7,1.91 (active),0.9,-0.11,0.16
TBC1D20,4.23,0.9,1.69,0.19
INTS6L,1.13,0.8,-0.72,-0.51
RLN3,1.83 (active),1.04,-0.19,1.12
POLR2L,1.57,0.8,-0.35,-0.42
EIF4A1,0.56 (active),0.72,-1.15,-0.99
CNOT3,4.48 (active),0.96,1.86,0.6
IRX2-DT,4.17 (active),0.86,1.6,-0.05
GATA1,3.65 (active),0.93,1.23,0.44
LAD1,3.83 (active),0.8,1.34,-0.48
GNG8,4.23 (active),0.78,1.7,-0.59
NPC1L1,2.63 (active),0.9,0.44,0.26
EIF2B5,1.11 (active),0.64,-0.74,-1.5
SLU7,2.35 (active),0.7,0.2,-1.12
GLI1,1,0.84,-0.8,-0.18
HSPA6,3.73 (active),0.84,1.31,-0.2

8 entries from above, reduced to “caspase robust z-score”:
DPPA5: -0.35
TOX4: -0.54
MICALL2: 1.22 (active)
CCDC59: 0.8 (active)
POLR2J: -0.56
PSMA7: -0.11 (active)
TBC1D20: 1.69
INTS6L: -0.72
